At least one compound was matched to its structure with a doubt left.
Test system: human skeletal muscle myotubes
Experiment: Oxygen consumption, ATP-synthase-dependent respiration in human skeletal muscle myotubes (XF96)
Assay type: cell-based
Details: 10 μM, myotubes stimulated with 10 μM epibatidine, oligomycin, vs. control, P<0.05

Q: Which “ATP-synthase-dependent component of the respiration” value does the source give for C/C=C1/[C@H](O[C@@H]2O[C@H](CO)[C@@H](O)[C@H](O)[C@H]2O)OC=C(C(=O)OC)[C@H]1CC(=O)OCCc1ccc(O)c(O)c1 [oleuropein] here?
A: boost the ATP-synthase-dependent component of the respiration

Q: For OCCc1ccc(O)c(O)c1 [hydroxytyrosol, 3,4-dihydroxyphenylethanol], which “ATP-synthase-dependent component of the respiration” value is on record?
A: boost the ATP-synthase-dependent component of the respiration

Reference: patent US20220256888A1, “COMPOSITIONS AND METHODS USING AT LEAST ONE OF OLEUROPEIN OR A METABOLITE THEREOF TO TREAT OR PREVENT MUSCLE FATIGUE FROM EXERCISE AND/OR FOR RESISTANCE TO MUSCLE FATIGUE FROM EXERCISE” (SOCIÉTÉ DES PRODUITS NESTLÉ S.A., priority 2019, published 2022)
